In this experiment the target is T1, NXT2 missense variant c.268G>T p.(Ala90Ser) (human) (UniProt Q9NPJ8).
T1 sequence: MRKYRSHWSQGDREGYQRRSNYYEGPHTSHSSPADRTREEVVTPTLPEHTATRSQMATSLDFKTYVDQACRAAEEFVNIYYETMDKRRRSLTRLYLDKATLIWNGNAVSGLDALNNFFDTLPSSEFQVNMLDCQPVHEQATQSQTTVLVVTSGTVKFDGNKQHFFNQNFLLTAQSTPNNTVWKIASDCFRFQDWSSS
The experiment in a line: co-IP.

Binding data for two molecules are collected here from publication doi:10.1101/2024.08.01.24310552.

No constants are given. Whether binding was seen depends on the method and setting. Binding seen in cells or lysates may run through a third protein. Some binding calls cover weakened binding; strength is not graded here. Tags and fused reporters may be left off the sequences shown.

B1: FLAG-tagged NXF3 (wildtype) (protein, UniProt Q9H4D5-1 1-531)
chain: MSLPSGHTTGHTDQVVQRRARCWDIYQRRFSSRSEPVNPGMHSSSHQQQDGDAAMHGAHMDSPVRYTPYTISPYNRKGSFRKQDQTHVNMEREQKPPERRMEGNMPDGTLGSWFKITVPFGIKYNEKWLLNLIQNECSVPFVPVEFHYENMHASFFVENASIAYALKNVSGKIWDEDNEKISIFVNPAGIPHFVHRELKSEKVEQIKLAMNQQCDVSQEALDIQRLPFYPDMVNRDTKMASNPRKCMAASLDVHEENIPTVMSAGEMDKWKGIEPGEKCADRSPVCTTFSDTSSNINSILELFPKLLCLDGQQSPRATLCGTEAHKRLPTCKGSFFGSEMLKNLVLQFLQQYYLIYDSGDRQGLLSAYHDEACFSLSIPFNPEDSAPSSFCKFFKDSRNIKILKDPYLRGELLKHTKLDIVDSLSALPKTQHDLSSFLVDMWYQTEWMLCFSVNGVFKEVEGQSQGSVLAFTRTFIATPGSSSSLCIVNDKLFVRDTSHQGTQSALFTLVPTAFSSSVPAFSQEQQKMLPS
B1: the binding result is on record as “binds”.

B2: FLAG-tagged NXF2 (wildtype) (protein, UniProt Q9GZY0 1-626)
chain: MCSTLKKCGTYRTEVAECHDHGSTFQGRKKGGSSFRDNFDKRSCHYEHGGYERPPSHCQENDGSVEMRDVHKDQQLRHTPYSIRCERRMKWHSEDEIRITTWRNRKPPERKMSQNTQDGYTRNWFKVTIPYGIKYDKAWLMNSIQSHCSDRFTPVDFHYVRNRACFFVQDASAASALKDVSYKIYDDENQKICIFVNHSTAPYSVKNKLKPGQMEMLKLTMNKRYNVSQQALDLQNLRFDPDLMGRDIDIILNRRNCMAATLKIIERNFPELLSLNLCNNKLYQLDGLSDITEKAPKVKTLNLSKNKLESAWELGKVKGLKLEELWLEGNPLCSTFSDQSAYVSAIRDCFPKLLRLDGRELSAPVIVDIDSSETMKPCKENFTGSETLKHLVLQFLQQYYSIYDSGDRQGLLGAYHDEACFSLAIPFDPKDSAPSSLCKYFEDSRNMKTLKDPYLKGELLRRTKRDIVDSLSALPKTQHDLSSILVDVWCQTERMLCFSVNGVFKEVEGQSQGSVLAFTRTFIATPGSSSSLCIVNDELFVRDASPQETQSAFSIPVSTLSSSSEPSLSQEQQEMVQAFSAQSGMKLEWSQKCLQDNEWNYTRAGQAFTMLQTEGKIPAEAFKQIS
Turning to B2, the binding entry is “binds”.
